Reference: PubChem BioAssay AID1259308 (NCATS, 2017)

Aim: 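Knock-downs that increase output of a recombinant reporter protein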 (primary screen)
System: human HEK293 embryonic kidney cells stably expressing firefly luciferase (HEK-CMV-Luc2-Hygro)
Reagent: single siRNA against human genes, 0.8 pmol siRNA per well
Time to read-out: 72 h
Measurement: 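Reporter luminescence and viable-cell signal on separate replicate plates, given as percent of non-targeting control and median/MAD z-scores, plus per-cell luciferase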
Reading the numbers: total luciferase, z-score and total luciferase, % of control: higher = more reporter protein produced
Call rule: 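An siRNA counts as active if its total luciferase robust z-score exceeds 3; genes with two or more such siRNAs out of three were retested with fresh siRNAs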
Meaning of the calls: active = raised luciferase; inactive = no rise
The deposit covers about 59,000 reagents; shown is an unselected part. In the full data, about 1,510 (2.6%) are marked active. 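Calls use total luciferase alone and ignore viability, so some active siRNAs may act by altering cell number.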 Entries without a mark were called inactive. The numbers tell different reagents against one gene apart. Further read-outs or replicates are left out here.

| target | reagent | total luciferase, z-score | total luciferase, % of control |
| --- | --- | --- | --- |
| REEP6 | 1 | -1.84 | 45.3 |
| REEP6 | 2 | -1.16 | 58.7 |
| REEP6 | 3 | 0.0362 | 82.6 |
| GABRD | 1 | 2.59 | 133 |
| GABRD | 2 | 0.502 | 91.9 |
| GABRD | 3 | -0.296 | 76 |
| ANKRD53 | 1 | -0.856 | 64.9 |
| ANKRD53 | 2 | -0.506 | 71.8 |
| ANKRD53 | 3 | 0.887 | 99.5 |
| PRKCD | 1 | 2.18 | 125 |
| PRKCD | 2 | -0.481 | 72.3 |
| PRKCD | 3 | -0.0716 | 80.5 |

In a second layout: results already given
ANKRD53 #1
- total luciferase, z-score: -0.856
- total luciferase, % of control: 64.9

ANKRD53 #2
- total luciferase, z-score: -0.506
- total luciferase, % of control: 71.8

Next records follow.
| target | reagent | total luciferase, z-score | total luciferase, % of control |
| --- | --- | --- | --- |
| THAP12 | 1 | 0.318 | 88.2 |
| THAP12 | 2 | -0.21 | 77.7 |
| THAP12 | 3 | -0.294 | 76 |
| GTF2IRD2 | 1 | 0.331 | 88.5 |
| GTF2IRD2 | 2 | -0.906 | 63.9 |
| GTF2IRD2 | 3 | 3.14 (active) | 144 |
| IDI1 | 1 | 0.438 | 90.6 |
| IDI1 | 2 | -0.277 | 76.4 |
| IDI1 | 3 | 0.214 | 86.1 |
| AXIN2 | 1 | 2.36 | 129 |
| AXIN2 | 2 | -0.595 | 70.1 |
| AXIN2 | 3 | -0.384 | 74.3 |
